Measurements reported in PubChem BioAssay AID1259308 (NCATS, 2017)

Purpose: 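Genes whose loss raises luciferase production in HEK293 cells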 (primary screen)
Cells: human HEK293 embryonic kidney cells stably expressing firefly luciferase (HEK-CMV-Luc2-Hygro)
Knock-down reagent: single siRNA against human genes, 0.8 pmol siRNA per well
Time to read-out: 72 h
Read-out: 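Luciferase light (ONE-Glo) measured on one replicate plate set and viability (CellTiter-Glo) on the other, scaled to a negative control siRNA, with robust z-scores and luciferase per cell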
Reading the numbers: total luciferase, z-score and total luciferase, % of control: higher = more reporter protein produced; luciferase per cell, z-score: higher = more reporter output per viable cell; viable cells, % of control: higher = more viable cells
Call rule: 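An siRNA counts as active if its total luciferase robust z-score exceeds 3; genes with two or more such siRNAs out of three were retested with fresh siRNAs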
Calls: active = raised luciferase; inactive = no rise
Shown is a random part of about 59,000 reagents tested. In the full data, about 1,510 (2.6%) are marked active. 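Calls use total luciferase alone and ignore viability, so some active siRNAs may act by altering cell number.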 Reagents against one gene are numbered here.

| gene knocked down | reagent | total luciferase, z-score | total luciferase, % of control | luciferase per cell, z-score | viable cells, % of control | Call |
| --- | --- | --- | --- | --- | --- | --- |
| SDCBP | 1 | 1.24 | 107 | 0.659 | 100 | inactive |
| SDCBP | 2 | -1.19 | 58.3 | -0.469 | 73.7 | inactive |
| SDCBP | 3 | -0.18 | 78.3 | -0.227 | 92.9 | inactive |
| BICRA | 1 | 0.59 | 93.6 | -0.023 | 105 | inactive |
| BICRA | 2 | -0.905 | 63.9 | -1.35 | 102 | inactive |
| BICRA | 3 | -0.948 | 63 | -0.904 | 89.4 | inactive |
| COMMD7 | 1 | -0.201 | 77.9 | 0.547 | 75.4 | inactive |
| COMMD7 | 2 | -1.24 | 57.2 | -0.205 | 67.4 | inactive |
| COMMD7 | 3 | 0.354 | 88.9 | 0.805 | 80.4 | inactive |
| DRG1 | 1 | 0.91 | 100 | 0.775 | 91.1 | inactive |
| DRG1 | 2 | -1.09 | 60.1 | -0.912 | 85.4 | inactive |
| DRG1 | 3 | 0.912 | 100 | 0.804 | 90.5 | inactive |

Continued, starting with the last 3 of the part before.
| gene knocked down | reagent | total luciferase, z-score | total luciferase, % of control | luciferase per cell, z-score | viable cells, % of control | Call |
| --- | --- | --- | --- | --- | --- | --- |
| DRG1 | 1 | 0.91 | 100 | 0.775 | 91.1 | inactive |
| DRG1 | 2 | -1.09 | 60.1 | -0.912 | 85.4 | inactive |
| DRG1 | 3 | 0.912 | 100 | 0.804 | 90.5 | inactive |
| ACAD11 | 1 | 1.19 | 106 | 0.511 | 103 | inactive |
| ACAD11 | 2 | -0.0222 | 81.4 | 0.0518 | 89.8 | inactive |
| ACAD11 | 3 | -0.536 | 71.2 | -0.332 | 86.9 | inactive |
| HLA-DRB1 | 1 | -0.985 | 62.3 | -0.486 | 79.1 | inactive |
| HLA-DRB1 | 2 | -0.711 | 67.7 | -0.332 | 82.6 | inactive |
| HLA-DRB1 | 3 | 4.21 | 166 | 2.49 | 96.1 | active |
| ZNF808 | 1 | -1.37 | 54.7 | -0.201 | 64.4 | inactive |
| ZNF808 | 2 | 2.04 | 123 | 4.04 | 47.3 | inactive |
| ZNF808 | 3 | -0.733 | 67.3 | -0.416 | 83.9 | inactive |
| SLC17A4 | 1 | 0.655 | 94.9 | 0.671 | 88.9 | inactive |
| SLC17A4 | 2 | 0.964 | 101 | 0.589 | 96.7 | inactive |
| SLC17A4 | 3 | -0.0188 | 81.5 | 0.965 | 70.6 | inactive |
